Record: PubChem BioAssay AID504774 (Drosophila RNAi Screening Center, 2011)
Screen: 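Genes required for cells to withstand methyl methanesulphonate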 (primary screen). Cells: Drosophila Kc167 cells. Reagent: long dsRNA against Drosophila genes, about 0.25 µg dsRNA per well. Timing: about 6 days: 3 days knock-down, then 3 days with or without MMS. Treatment: methyl methanesulphonate 0.004% (w/v) for 3 days after knock-down. Measured: 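ATP-dependent luminescence as a measure of live cells in MMS-exposed wells, quantile normalised within each plate, with replicate values also given as a mean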. Reading the numbers: mean viability with MMS: higher = more surviving cells after MMS.
The deposit covers about 23,000 reagents; shown is an unselected part of those with a known target gene and a result. 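Values are quantile-normalised luminescence on an arbitrary scale; higher means more cells surviving MMS.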 Reagents against one gene are numbered here. Further read-outs or replicates are left out here. No sequences are given here.

Which result is listed for cac #1?
mean viability with MMS: 3.49e6

For cac #2, how do the results read?
mean viability with MMS: 3.51e6

What did the screen give for CG13358?
mean viability with MMS: 3.65e6

For gom, how do the results read?
mean viability with MMS: 3.56e6

For CkIIalpha, what was measured?
mean viability with MMS: 3.40e6

For Larp7, how do the results read?
mean viability with MMS: 3.40e6

How did the screen score COX4L?
mean viability with MMS: 3.60e6

With Hsc70-2, what does the deposit list?
mean viability with MMS: 3.55e6

What is on record for kek4?
mean viability with MMS: 3.78e6

For CG9270, what was measured?
mean viability with MMS: 3.52e6

What did the screen give for ZC3H3?
mean viability with MMS: 3.05e6

With CD98hc, how do the results read?
mean viability with MMS: 3.42e6

For CG8343, what does the deposit list?
mean viability with MMS: 3.57e6

Which result is listed for adp?
mean viability with MMS: 3.61e6

2 entries from above in another layout.
cac #1
- mean viability with MMS: 3.49e6

cac #2
- mean viability with MMS: 3.51e6
